Here are results for two molecules from article doi:10.1101/2020.05.28.121053.

These are yes or no findings as the source states them, for the method shown. For some assays here: Binding can be weak; no strength is given.

For assay [1], the target named is mbGIPC PDZ domain (Monosiga brevicollis GIPC homologue, original construct) (Monosiga brevicollis). The assay can be described thus: fluorescence polarisation. (In general: Polarisation of emitted light reports the rotation of a fluorescent probe.)
Assay [2] concerns the target mbSHANK1 PDZ domain (Monosiga brevicollis SHANK1 homologue) (Monosiga brevicollis). Description: crystal structure.

B1: decameric peptide matching the final 10 residues of the mbGIPC_(SFDEI) construct (peptide)
peptide: VEPKKSFDEI
Turning to B1, the binding result in assay [1] is on record as “no binding (tested: 1 mM)”.

B2: fluoresceinated peptide matching the C-terminus of GIRK3 (peptide)
peptide: LPPPESESKV
modifications: fluoresceinated (F*)
Turning to B2, the binding entry in assay [2] is listed as “binds”.
